Amino acid sequences for entries named in this document (tags omitted). A change or cut given only in a name is not applied to a line headed by its entry.
UniProt P18054: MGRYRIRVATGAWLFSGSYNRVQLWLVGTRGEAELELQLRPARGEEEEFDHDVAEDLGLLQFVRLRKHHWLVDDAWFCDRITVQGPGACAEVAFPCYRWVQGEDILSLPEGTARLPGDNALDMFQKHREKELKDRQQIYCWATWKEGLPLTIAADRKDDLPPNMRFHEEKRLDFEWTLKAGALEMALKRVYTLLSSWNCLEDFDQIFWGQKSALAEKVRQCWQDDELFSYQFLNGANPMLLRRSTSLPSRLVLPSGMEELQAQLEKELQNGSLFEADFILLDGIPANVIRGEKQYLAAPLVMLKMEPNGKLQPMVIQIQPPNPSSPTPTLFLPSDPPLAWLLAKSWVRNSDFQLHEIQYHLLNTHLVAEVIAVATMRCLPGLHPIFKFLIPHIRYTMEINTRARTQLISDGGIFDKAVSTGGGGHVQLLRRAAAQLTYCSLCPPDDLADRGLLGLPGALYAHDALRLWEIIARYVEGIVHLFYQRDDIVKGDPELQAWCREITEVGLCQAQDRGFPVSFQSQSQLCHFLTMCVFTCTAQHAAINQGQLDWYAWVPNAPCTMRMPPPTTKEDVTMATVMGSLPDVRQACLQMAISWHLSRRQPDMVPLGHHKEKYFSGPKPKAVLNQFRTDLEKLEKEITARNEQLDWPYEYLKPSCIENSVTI

Values joined by “and” are separate entries in the source; they are usually repeats but may differ in a detail not shown here. Equal values may be shown once. Screen size: about 580,000 compounds; about 6,100 (1.1%) were called active. Inconclusive results, whose numbers are uncertain, are shown with a selection of clear calls. Calls come from the whole dose curve; as a rule, active = well fitted inhibition curve with a large enough effect; inconclusive = small, poorly fitted or top-dose-only effect, or another doubt; inactive = no such curve, though single readings can be large or run the other way. Potencies of inconclusive entries are doubtful fits and often do not repeat.
The molecules below were run against Polyunsaturated fatty acid lipoxygenase ALOX12 (Homo sapiens) (UniProt P18054) (assay: Primary qHTS assay for inhibitors of human arachidonate 12S-lipoxygenase (ALOX12): Round 2). Settings: purified 12hLO, xylenol orange hydroperoxide absorbance; activity change, negative = inhibition: at 108 µM (top of the series) unless noted.
Procedure, shortened: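 Purified human 12hLO at 150 nM in 25 mM Hepes, 0.01% Triton X-100, pH 7.0, preincubated 15 min at room temperature with compound. Reaction started with 40 uM arachidonic acid, 30 min at room temperature. Hydroperoxide measured by Fe-xylenol orange, 573/405 nm absorbance ratio.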
In the case of `O=c1c(=O)n(-c2ccc(F)c(F)c2)ccn1Cc1ccc(F)cc1Cl`, the Potency is reported as inconclusive: 100 µM [inhibitor, partial curve, poor fit]. In the case of `O=C(CNC(=O)c1ccccn1)N=Nc1c(O)[nH]c2ccccc12`, the Potency is reported as inconclusive: 89.1 µM [inhibitor, single point]. `COc1ccc2c(=O)c(-c3ccccc3OC)c(C(F)(F)F)oc2c1` was tested, and the Potency was inconclusive: 50.1 µM [inhibitor, partial curve, poor fit]. `COc1cc(C2CC(=O)N(CC(=O)Nc3ccccc3C)c3ccccc3S2)cc(OC)c1OC` (centres undefined) was tested, and the “activity change, negative = inhibition” value was inactive: -12.8%. For `COc1ccc(C(NC(=O)/C=C/c2ccco2)c2ccc(OC)c(OC)c2)cc1OC`, the Potency was inconclusive: 22.4 µM [inhibitor, partial curve]. `Cc1ccc(C)c(N2CCN(C(=S)Nc3ccc4nc(N5CCOCC5)cc(C)c4c3)CC2)c1` was tested, and the “activity change, negative = inhibition” value was inactive: -8.62%. For `CCNC(=S)N(Cc1ccc2c(c1)OCO2)C1CC(=O)N(c2ccc(F)cc2)C1=O` (centres undefined), the Potency was inconclusive: 17.8 µM [inhibitor, partial curve, poor fit]. In the case of `CCOc1ccc(OCC)c(NC(=O)CN2CCN(c3cccc(C)c3C)CC2)c1`, the Potency is reported as inconclusive: 0.0794 µM [inhibitor, full curve, poor fit]. `Cc1cc(C)c(C#N)c(=N)o1` was tested, and the Potency was inconclusive: 25.1 µM [inhibitor, partial curve]. For `Cc1ccc(NC(=O)Nc2ccc3c(c2)nc(C)n3C)cc1`, the “activity change, negative = inhibition” value was inactive: -0.113%. For `CCn1cc([N+](=O)[O-])c(C(=O)N2N=C(c3cccc4ccccc34)CC2c2ccccc2O)n1` (centres undefined), the “activity change, negative = inhibition” value was inactive: -29.2% [at 57.4 µM]. In the case of `Oc1ccc(-c2nc(-c3cc4ccccc4o3)cs2)cc1`, the Potency is reported as active: 11.2 µM. For `Cc1ccc2occ(/C=C/C(=O)O)c(=O)c2c1`, the “activity change, negative = inhibition” value was inactive: 11.2%. `CN(Cc1ccnc2ccccc12)C(=O)c1cn(Cc2ccc(Cl)cc2)nn1` was tested, and the “activity change, negative = inhibition” value was inactive: -19%. In the case of `c1ccc(C(CNCC2CC2)N2CCCC2)cc1` (centres undefined), the Potency is reported as inconclusive: 158 µM [inhibitor, partial curve, poor fit]. `Cc1c(C(=O)N(CCO)Cc2ccccc2)oc2c(F)cccc12` was tested, and the Potency was inconclusive: 126 µM [inhibitor, single point]. For `CCCCn1c(=O)n(-c2cc(OC)ccc2OC)c(=O)c2c3c(sc21)CN(C(C)=O)CC3`, the activity change, negative = inhibition was inconclusive: -30.3% [inhibitor]. `Cc1cc(SCC(=O)c2ccccc2)nc(C)n1` was tested, and the Potency was inconclusive: 50.1 µM [inhibitor, single point]. In the case of `O=C(OCc1ccc(F)cc1F)c1cccc([N+](=O)[O-])c1`, the “activity change, negative = inhibition” value is reported as inactive: -11.5%. `Cc1ccc(NS(=O)(=O)c2c(C)[nH]c(C)c2C(=O)N2CCCCC2)c(Br)c1` was tested, and the Potency was inconclusive: 112 µM [inhibitor, partial curve, poor fit]. For `Cc1ccc(C2Nc3ccc4ccccc4c3C3=C2C(=O)CC(C)(C)C3)o1` (centres undefined), the Potency was inconclusive: 50.1 µM [inhibitor, partial curve, poor fit] and inconclusive: 100 µM [inhibitor, single point]. `CCOc1ccc(-n2nc3ccc(NC(=O)c4ccc(OC)c(Cl)c4)cc3n2)cc1` was tested, and the Potency was inconclusive: 158 µM [inhibitor, partial curve, poor fit]. In the case of `Clc1cccc(CSc2nnc(-c3c[nH]c4ccccc34)o2)c1`, the Potency is reported as inconclusive: 56.2 µM [inhibitor, partial curve, poor fit]. With `NS(=O)(=O)c1ccc(N/N=C/c2cccc(/C=N/Nc3ccc(S(N)(=O)=O)cc3[N+](=O)[O-])c2)c([N+](=O)[O-])c1` the “activity change, negative = inhibition” value was inactive: 2.81%. For `CCOC(=O)c1c(C2COc3ccccc3O2)csc1NC(=O)c1ccco1` (centres undefined), the Potency was inconclusive: 3.98 µM [inhibitor, full curve, poor fit]. In the case of `CN1CCC(OC2CCN(C(=O)c3ccc(C(F)(F)F)cc3)CC2)CC1`, the “activity change, negative = inhibition” value is reported as inactive: 80.4%. `CCC(C(=O)NCc1ccccc1OC)n1nc(C)n2c(cc3occc32)c1=O` (centres undefined) was tested, and the Potency was inconclusive: 126 µM [inhibitor, partial curve, poor fit]. With `COCCc1ccc(OC2(C)CCN(Cc3cccc(OCOC)c3)C2)cc1` (centres undefined) the “activity change, negative = inhibition” value was inactive: -26.2%. In the case of `Cc1oc(-c2ccccc2Cl)nc1CS(=O)(=O)CC(=O)NCc1ccc(F)cc1`, the Potency is reported as inconclusive: 112 µM [inhibitor, partial curve, poor fit]. For `CC(=O)c1c(O)cc(=O)oc1-c1ccc(C)cc1`, the Potency was inconclusive: 5.62 µM [inhibitor, full curve, poor fit]. For `C#CCNC(=O)C[C@@H]1c2nc(NC(=O)C3CCCCC3)sc2C[C@@H]2[C@](C)(CO)[C@H](O)CC[C@]21C`, the “activity change, negative = inhibition” value was inactive: 11.2%. `O=C(Cc1cccs1)NNC(=S)NCc1ccc(Cl)cc1` was tested, and the Potency was inconclusive: 89.1 µM [inhibitor, single point]. `O=C(O)C(c1c[nH]c2cc(Cl)ccc12)N1CCN(c2ncc(Br)cn2)CC1` (centres undefined) was tested, and the Potency was inconclusive: 44.7 µM [inhibitor, partial curve, poor fit]. In the case of `CCOc1ccccc1-n1c(SCC(=O)Nc2ccccc2C(=O)O)nc2ccccc2c1=O`, the Potency is reported as inconclusive: 1.12 µM [inhibitor, full curve, poor fit]. For `COc1ccc(Cl)cc1C=CC=Nc1ccc(S(N)(=O)=O)cc1`, the Potency was inconclusive: 50.1 µM [inhibitor, partial curve, poor fit]. With `O=C(NCc1ccccc1)c1ccc(CN2C(=O)NC3(CCS(=O)(=O)CC3)C2=O)cc1` the Potency was inconclusive: 35.5 µM [inhibitor, partial curve]. `CC1CCc2sc3nc(NCc4ccco4)n4ncnc4c3c2C1` (centres undefined) was tested, and the Potency was inconclusive: 100 µM [inhibitor, single point]. In the case of `CCc1c(C)sc(NC(=O)C2CCCCC2C(=O)O)c1C(N)=O` (centres undefined), the Potency is reported as inconclusive: 35.5 µM [inhibitor, single point]. For `COc1ccc(-c2oc3cccnc3c2-c2ccc(OC)nc2)cc1`, the Potency was inconclusive: 89.1 µM [inhibitor, single point]. For `C=CCSc1nc2ccccc2c(=O)n1C1CCOC(C)(C)C1` (centres undefined), the “activity change, negative = inhibition” value was inactive: 11.6%. For `Cn1nc(CC(=O)NCc2ccccc2F)c2ccccc2c1=O`, the “activity change, negative = inhibition” value was inactive: -18.6%. For `COc1ccc2c(c1)c(C(=O)N/N=C/c1cccc(O)c1)c(C)n2C`, the “activity change, negative = inhibition” value was inactive: -5.42%. With `CCCN(CCC)CCSc1nc(O)c(C(C)C)c(=O)[nH]1` the Potency was inconclusive: 89.1 µM [inhibitor, single point]. In the case of `COc1ccc(NC(=O)C2CC(=O)Nc3nc(N4CCc5ccccc5C4)[nH]c(=O)c32)cc1` (centres undefined), the Potency is reported as inconclusive: 100 µM [inhibitor, partial curve, poor fit]. In the case of `CC(C)OCc1cccc(CNC(=O)CNC(=O)C2CCCC2)c1`, the “activity change, negative = inhibition” value is reported as inactive: 9.5%. For `CCC1CN(C(=O)N2CCC(C(=O)Nc3ccccc3OC)CC2)c2ccccc2O1` (centres undefined), the “activity change, negative = inhibition” value was inactive: 11.8%. For `CCS(=O)(=O)n1c(Cc2cccs2)nc2ccccc21`, the Potency was inconclusive: 50.1 µM [inhibitor, partial curve, poor fit]. In the case of `Cc1cc(SC(C)C(=O)N(C)C)nc2ccccc12` (centres undefined), the “activity change, negative = inhibition” value is reported as inactive: -31.9%. `Cc1ccc(S(=O)(=O)CC(=O)N2CCN(c3ccc([N+](=O)[O-])cc3)CC2)cc1` was tested, and the Potency was inconclusive: 39.8 µM [inhibitor, partial curve, poor fit]. With `Cn1ccnc1CN(C1CC1)S(=O)(=O)c1cccc(Cl)c1F` the “activity change, negative = inhibition” value was inactive: -0.888%. With `O=C(OCc1nnnn1-c1ccccc1)C1(c2ccc(Cl)cc2)CCC1` the “activity change, negative = inhibition” value was inactive: -3.67%. With `CCOc1ccc(C(=O)NC(=S)Nc2ncccc2C)cc1[N+](=O)[O-]` the “activity change, negative = inhibition” value was inactive: -12.4%. With `O=C(c1cnc2n1CCN(CCc1ccccc1)CC2)N1CCC(c2ccccc2)CC1` the “activity change, negative = inhibition” value was inactive: -8.33% [at 176 µM]. With `CCOC(=O)CNC(=O)N1CCCN(S(=O)(=O)c2ccc3c(ccn3CC)c2)CC1` the “activity change, negative = inhibition” value was inactive: -10.8%. For `Cc1ccc(F)c(C2=CC(=O)C[C@H](c3ccc(F)cc3)C2)c1`, the Potency was inconclusive: 31.6 µM [inhibitor, single point]. `COC(=O)C(C)Oc1ccc2c(c1)O/C(=C\c1ccco1)C2=O` (centres undefined) was tested, and the Potency was inconclusive: 44.7 µM [inhibitor, partial curve, poor fit]. `Cc1nc2cnc(N3CCN(C)CC3)nc2n(C[C@H]2CCCO2)c1=O` was tested, and the Potency was inconclusive: 31.6 µM [inhibitor, partial curve, poor fit]. With `COc1ccc(C)c2sc(N3CCN(C(=O)c4cccc(F)c4)CC3)nc12` the “activity change, negative = inhibition” value was inactive: -17.1%. With `NS(=O)(=O)c1ccc(NC(=O)Nc2cccc(Cl)c2)cc1` the Potency was inconclusive: 44.7 µM [inhibitor, single point]. In the case of `CCN1C(=O)[C@H]2[C@@H](c3ccc(C(F)(F)F)cc3)N[C@]3(CCCN(Cc4ccc(Cl)cc4)C3=O)[C@H]2C1=O`, the Potency is reported as inconclusive: 89.1 µM [inhibitor, single point]. For `O=C(c1ccccc1Br)N(Cc1ccco1)Cc1ccco1`, the “activity change, negative = inhibition” value was inactive: -12.4%. `CCC1CCCCN1S(=O)(=O)c1ccc(S(=O)(=O)N(Cc2ccccn2)CC2CCCO2)cc1` (centres undefined) was tested, and the “activity change, negative = inhibition” value was inactive: -10.6%. For `CCn1c(SCc2c(F)cccc2Cl)nc(=O)c2c(C(=O)OC)cc(C3CC3)nc21`, the Potency was inconclusive: 100 µM [inhibitor, partial curve, poor fit]. In the case of `CCn1nc(C(=O)Nc2ccc(SC(F)F)cc2)c2ccccc2c1=O`, the “activity change, negative = inhibition” value is reported as inactive: 5.77%. In the case of `COc1cc(/C=C2/SC(=Nc3ccc(O)cc3)NC2=O)cc(OC)c1O`, the “activity change, negative = inhibition” value is reported as inactive: -10.7%. In the case of `Cn1cccc1C(=O)N1C[C@@H](NC(=O)Nc2ccc(F)cc2F)C[C@H]1C(=O)N[C@H](Cc1c[nH]c2ccccc12)C(N)=O`, the “activity change, negative = inhibition” value is reported as inactive: 2.87%. For `S=c1nc[nH]c2c1ncn2C1CCCO1` (centres undefined), the Potency was inconclusive: 1.58 µM [inhibitor, full curve, poor fit]. In the case of `N#C/C(=C\c1ccc(OCc2ccc(Cl)cc2)cc1)C(=O)Nc1cccc(C(=O)O)c1`, the “activity change, negative = inhibition” value is reported as inactive: -26.9%. In the case of `CCOc1cc(CNCc2ccco2)ccc1O`, the Potency is reported as inconclusive: 0.501 µM [inhibitor, full curve, poor fit].

From PubChem BioAssay AID1671190 (National Center for Advancing Translational Sciences (NCATS), 2021)
% is set by controls: 0 for no effect and ±100 for the full control effect; potency is the fitted concentration of half-maximal effect.
